Data published in patent US20220162188A1, “ISOPRENOIDS AND METHODS OF MAKING THEREOF” (NORTH CAROLINA STATE UNIVERSITY, priority 2019, published 2022).
Some entries share one result that the patent states for a list of compounds. At least one compound was matched to its structure with a doubt left.

What follows are compounds tested against T1, isopentenyl phosphate kinase (IPK) (Thermoplasma acidophilum, UniProt Q9HLX1). Conditions: approximate; overnight reaction, compared against synthetic diphosphate standards.
T1 sequence (Q9HLX1 1-245): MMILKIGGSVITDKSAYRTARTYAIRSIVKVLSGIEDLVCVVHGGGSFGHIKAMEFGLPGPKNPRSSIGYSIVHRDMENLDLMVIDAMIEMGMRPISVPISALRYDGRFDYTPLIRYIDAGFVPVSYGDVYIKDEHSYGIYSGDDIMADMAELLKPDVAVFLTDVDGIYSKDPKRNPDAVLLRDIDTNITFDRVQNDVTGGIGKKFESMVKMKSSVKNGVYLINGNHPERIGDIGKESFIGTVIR
Type: biochemical
Protocol: Since the substrate scope of IPK has yet to be fully described, here IPK was tested against a wider panel of substrates. The IPK gene from T. acidophilum was codon optimized and subcloned into pET28a. Following expression in E. coli BL21 DE3, the enzyme was purified via metal-chelation affinity chromatography. Next, the substrate specificity of the enzyme was determined in vitro using a panel of synthesized alcohol monophosphates using low resolution mass spectrometry (FIG. 25). The availability of alcohol diphosphate byproducts (FIG. 23) conveniently served as product standards.
Assay for Initial Activity of Monophosphates with IPK. Fractions from the synthesis of the diphosphates on a 400 μmol scale containing the monophosphates were concentrated in vacuo and resuspended to 5 mg/mL in water. Enzymatic reaction mixtures contained 50 mM Tris (pH 8.0), 2.5 mM MgCl2, 0.05 mM DTT, 1 mM ATP, and 4.2 μg of enzyme in a 200 μL reaction with 40 μL of substrate (1 mg/mL final). A reaction mixture without enzyme was setup as a control. Reactions were incubated overnight at 37° C. and checked by low-resolution LC-MS for diphosphate product formation. Standards from the isolated diphosphates were used to confirm retention time and mass. Reactions with a >10% diphosphate generation as compared to the no enzyme control were selected for kinetic experiments. LC-MS experiments were conducted using a Shimadzu LC-MS 2020 single quadrupole instrument with a Phenomenex Kinetex UPLC C18 column (2.1×50 mm, […], 100 Å pores) column. 5 μL was injected onto and separated using a series of linear gradients developed from 0.1% formic acid in H2O (A) to 0.1% formic acid in acetonitrile (B) at 0.2 mL/min using the following protocol: 0-2.2 min, 95-1% A; 2.21-2.6 min, 1% A; 2.61-2.62 min, 1-95% A; 2.63-3.5 min, 95% A. Products of enzymatic reactions were verified by mass and comparison with diphosphate standards previously synthesized.

| Structure (SMILES) | conversion (phosphorylation by IPK) determined by low-resolution MS |
| --- | --- |
| CC(C)=CCOP(=O)(O)O [DMAP, 3-Methylbut-2-en-1-yl monophosphate, reference compound] | > 50% |
| C=C(C)CCOP(=O)(O)O [IP, 3-Methylbut-3-en-1-yl monophosphate, reference compound] | > 50% |
| C=CCCOP(=O)(O)O [Substrate 1] | > 50% |
| C=CCC(C)OP(=O)(O)O (centres unmarked) [Substrate 2] | > 50% |
| C=C(Br)CCOP(=O)(O)O [Substrate 3] | > 50% |
| C#CCCCOP(=O)(O)O [Substrate 4] | > 50% |
| C=C(C)COP(=O)(O)O [Substrate 5] | > 50% |
| C=CCCCOP(=O)(O)O [Substrate 6] | > 50% |
| CCC/C=C\COP(=O)(O)O [Substrate 7] | > 50% |
| CCC/C=C/COP(=O)(O)O [Substrate 8] | > 50% |
| C#CCCOP(=O)(O)O [Substrate 9] | > 50% |
